A: 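ClpP1P2, Mycobacterium tuberculosis (UniProt P9WPC5 and UniProt P9WPC3). Protease assay of ClpP1P2, read by the AMC dye that it sets free. Compounds at 50 µM. Higher reads as stronger inhibition, judged from the few compounds that gave an IC50. Most other retested compounds had strongly negative values. About 69,000 compounds were tested under these conditions; 0.015% (about 10) showed 50% or more at least once.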
B: 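Enzyme assay of CoaBC with a phosphate dye (Biomol Green) read at 650 nm. Target: Coenzyme A biosynthesis protein CoaBC, Mycobacterium tuberculosis (UniProt P9WNZ1). Tested at 30 µM. Higher reads as stronger inhibition, judged from the few compounds that gave an IC50. Most strong results did not repeat in a second test. About 67,000 compounds were tested under these conditions; 0.06% (about 40) showed 50% or more at least once.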
C: 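Assay of Toxoplasma gondii numbers, read through their beta-galactosidase reporter with a colour substrate. Compounds at 10 µM. The record gives no direction; the compounds picked for IC50 retests had high values, so higher reads as fewer parasites. About 67,000 compounds were tested under these conditions; 0.38% (about 260) showed 50% or more at least once.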

Chains of the proteins cited; added tags and fusions are not shown.
UniProt P9WPC5, whole entry: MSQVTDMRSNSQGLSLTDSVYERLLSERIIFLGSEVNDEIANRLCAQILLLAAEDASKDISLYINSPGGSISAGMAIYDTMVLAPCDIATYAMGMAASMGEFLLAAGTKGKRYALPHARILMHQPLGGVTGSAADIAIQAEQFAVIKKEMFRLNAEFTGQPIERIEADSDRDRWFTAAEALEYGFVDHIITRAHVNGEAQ
UniProt P9WPC3, whole entry partner: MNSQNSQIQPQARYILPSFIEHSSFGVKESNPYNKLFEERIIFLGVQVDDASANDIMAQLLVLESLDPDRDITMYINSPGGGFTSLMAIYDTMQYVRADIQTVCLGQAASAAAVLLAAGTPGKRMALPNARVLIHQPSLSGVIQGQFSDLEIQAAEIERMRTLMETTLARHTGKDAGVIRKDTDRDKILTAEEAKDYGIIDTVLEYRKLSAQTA
UniProt P9WNZ1, whole entry: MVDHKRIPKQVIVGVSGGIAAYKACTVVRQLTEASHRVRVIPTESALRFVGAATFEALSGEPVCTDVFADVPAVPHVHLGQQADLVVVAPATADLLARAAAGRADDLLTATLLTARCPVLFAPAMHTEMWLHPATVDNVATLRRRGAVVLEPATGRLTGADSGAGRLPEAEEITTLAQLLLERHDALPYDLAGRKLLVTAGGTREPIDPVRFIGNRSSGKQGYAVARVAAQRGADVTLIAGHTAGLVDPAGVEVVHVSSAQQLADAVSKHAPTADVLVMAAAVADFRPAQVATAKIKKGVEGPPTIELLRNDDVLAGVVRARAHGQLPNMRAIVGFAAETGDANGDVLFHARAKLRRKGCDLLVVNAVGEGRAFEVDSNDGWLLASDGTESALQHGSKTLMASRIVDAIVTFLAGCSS

Values are the deposited “Percent Effect”, in %.
The controls that fix the scale are not given in the record; negative values are as filed.
Compounds were drawn at random from those tested, without regard to their results.

{"compound": "Cc1cc(C)nc(C2CCCN2S(=O)(=O)N2CCOCC2)n1", "stereo": "stereo not drawn", "A": -10.92, "B": -3.313, "C": 17.04}
{"compound": "COCC(=O)NCC1Cn2nnc(-c3ccncc3)c2CO1.O=C(O)C(F)(F)F", "stereo": "stereo not drawn", "C": -9.026}
{"compound": "CCC(CN1CCCC1)n1cncc1-c1cnn(Cc2ccccc2)c1", "stereo": "stereo not drawn", "A": -19.76, "B": 2.466}
{"compound": "COCCC(=O)N1C[C@H]2CN(Cc3cccc(C)c3)C(=O)[C@H]2C1", "A": -11.51, "B": 3.218}
{"compound": "O=C(O)C(F)(F)F.O=C(O)C(F)(F)F.c1cncc(OCC2CN(Cc3ccsc3)Cc3nccn3C2)c1", "stereo": "stereo not drawn", "C": 11.47}
{"compound": "CC1CCc2n[nH]c(C(=O)NCCCc3ccco3)c2C1", "stereo": "stereo not drawn", "A": -27.77, "B": 1.112, "C": -4.269}
{"compound": "CC(C)COCCC(=O)Nc1c(-c2ccc(F)cc2)ncn1C", "A": -4.597, "B": -2.269, "C": 2.891}
{"compound": "CC(C)c1cc(CN2CCC(CC(=O)O)CC2)no1", "A": -5.02, "B": -0.1227, "C": 24.07}
{"compound": "O=C(O)C(F)(F)F.O=C(O)C(F)(F)F.[H][C@]12C[C@@H](CN(C)C)N(C(C)=O)[C@@]1([H])CCN(c1ncc(F)cn1)C2", "C": -14.98}
{"compound": "Cn1cc(S(=O)(=O)N2CCCC2Cn2ccnc2)cc1C(N)=O", "stereo": "stereo not drawn", "A": 4.008, "C": 13.36}
{"compound": "CCC(=O)NC1CCCN(Cc2ccc(-n3ccnc3)cc2)C1", "stereo": "stereo not drawn", "A": -9.931, "B": 2.8, "C": 4.253}
{"compound": "CCn1ccnc1CN1CCN(Cc2cccnc2)CC1C", "stereo": "stereo not drawn", "A": -9.9, "B": 3.046, "C": 14.75}
{"compound": "Cc1noc(C)c1CNC(=O)N1CCN(CC2CC2)CC1", "A": -14.08, "B": 0.8485, "C": 7.124}
{"compound": "Cc1cccc(-n2c(C)cc(C(=O)NS(C)(=O)=O)c2C)c1", "A": -3.453, "B": 3.675, "C": -4.657}
{"compound": "Cc1cccc(CN2CCn3cc(Cn4cccn4)nc3C2)n1", "A": -5.293, "B": 11.53}
{"compound": "CC(C)S(=O)(=O)N1CCN(C(=O)c2cnn(C)c2Cl)CC1", "A": 13.62, "B": 6.236, "C": 63.23}
{"compound": "O=C(O)C(F)(F)F.O=C(O)C(F)(F)F.O=C(O)C(F)(F)F.[H][C@@]12CN(Cc3ccco3)C[C@]1([H])OCCN2CCN1CCCC1", "C": 4.104}
{"compound": "CCC1COCCN1C(=O)CNC(=O)c1ccc2c(c1)CCC2", "stereo": "stereo not drawn", "A": 16.84, "B": -4.466, "C": -2.709}
{"compound": "COc1cccc(C2CC(=O)Nc3nc(N4CCOCC4)sc32)c1OC", "stereo": "stereo not drawn", "A": -17.23, "B": 2.294, "C": 1.659}
{"compound": "Cc1cc(CNC(=O)N2CCN(Cc3ccccc3)C[C@H]2C)on1", "A": 4.99, "B": -1.449, "C": -17.43}
{"compound": "C[C@@H](O)CNC(=O)c1nc(CC(=O)Nc2ccccc2)no1", "A": 0.0735, "B": -12.5, "C": -1.06}
{"compound": "COC(=O)c1ccc(CNC(=O)Nc2ccc(=O)n(C)c2)cc1", "A": 0.2266, "C": -2.308}

Some entries from above, unchanged:

- CC1CCc2n[nH]c(C(=O)NCCCc3ccco3)c2C1 (stereo not drawn) | A: -27.77%; B: 1.112%; C: -4.269%
- C[C@@H](O)CNC(=O)c1nc(CC(=O)Nc2ccccc2)no1 | A: 0.0735%; B: -12.5%; C: -1.06%

Source: ChEMBL document CHEMBL3988442, “University of Dundee, Small-Polar-MMV Screening Library” (2021).